These are yes or no findings as the source states them, for the method shown. Binding seen in cells or lysates may run through a third protein. Here binding means that the protein was enriched with, or labelled near, the bait; the list need not be complete. For part of these data: No binding means not detected with the bait.
B1: PPP2R1B, P30154 1-601 (protein)
chain: MAGASELGTGPGAAGGDGDDSLYPIAVLIDELRNEDVQLRLNSIKKLSTIALALGVERTRSELLPFLTDTIYDEDEVLLALAEQLGNFTGLVGGPDFAHCLLPPLENLATVEETVVRDKAVESLRQISQEHTPVALEAYFVPLVKRLASGDWFTSRTSACGLFSVCYPRASNAVKAEIRQQFRSLCSDDTPMVRRAAASKLGEFAKVLELDSVKSEIVPLFTSLASDEQDSVRLLAVEACVSIAQLLSQDDLETLVMPTLRQAAEDKSWRVRYMVADRFSELQKAMGPKITLNDLIPAFQNLLKDCEAEVRAAAAHKVKELGENLPIEDRETIIMNQILPYIKELVSDTNQHVKSALASVIMGLSTILGKENTIEHLLPLFLAQLKDECPDVRLNIISNLDCVNEVIGIRQLSQSLLPAIVELAEDAKWRVRLAIIEYMPLLAGQLGVEFFDEKLNSLCMAWLVDHVYAIREAATNNLMKLVQKFGTEWAQNTIVPKVLVMANDPNYLHRMTTLFCINALSEACGQEITTKQMLPIVLKMAGDQVANVRFNVAKSLQKIGPILDTNALQGEVKPVLQKLGQDEDMDVKYFAQEAISVLALA
B2: STRIP2, Q9ULQ0 1-834 (protein)
chain: MEDPAAPGTGGPPANGNGNGGGKGKQAAPKGREAFRSQRRESEGSVDCPTLEFEYGDADGHAAELSELYSYTENLEFTNNRRCFEEDFKTQVQGKEWLELEEDAQKAYIMGLLDRLEVVSRERRLKVARAVLYLAQGTFGECDSEVDVLHWSRYNCFLLYQMGTFSTFLELLHMEIDNSQACSSALRKPAVSIADSTELRVLLSVMYLMVENIRLERETDPCGWRTARETFRTELSFSMHNEEPFALLLFSMVTKFCSGLAPHFPIKKVLLLLWKVVMFTLGGFEHLQTLKVQKRAELGLPPLAEDSIQVVKSMRAASPPSYTLDLGESQLAPPPSKLRGRRGSRRQLLTKQDSLDIYNERDLFKTEEPATEEEEESAGDGERTLDGELDLLEQDPLVPPPPSQAPLSAERVAFPKGLPWAPKVRQKDIEHFLEMSRNKFIGFTLGQDTDTLVGLPRPIHESVKTLKQHKYISIADVQIKNEEELEKCPMSLGEEVVPETPCEILYQGMLYSLPQYMIALLKILLAAAPTSKAKTDSINILADVLPEEMPITVLQSMKLGIDVNRHKEIIVKSISTLLLLLLKHFKLNHIYQFEYVSQHLVFANCIPLILKFFNQNILSYITAKNSISVLDYPCCTIQDLPELTTESLEAGDNSQFCWRNLFSCINLLRLLNKLTKWKHSRTMMLVVFKSAPILKRALKVKQAMLQLYVLKLLKLQTKYLGRQWRKSNMKTMSAIYQKVRHRMNDDWAYGNDIDARPWDFQAEECTLRANIEAFNSRRYDRPQDSEFSPVDNCLQSVLGQRLDLPEDFHYSYELWLEREVFSQPICWEELLQNH
B3: PPP2R2D (protein, UniProt Q66LE6 1-453)
chain: MAGAGGGGCPAGGNDFQWCFSQVKGAIDEDVAEADIISTVEFNYSGDLLATGDKGGRVVIFQREQENKSRPHSRGEYNVYSTFQSHEPEFDYLKSLEIEEKINKIRWLPQQNAAHFLLSTNDKTIKLWKISERDKRAEGYNLKDEDGRLRDPFRITALRVPILKPMDLMVEASPRRIFANAHTYHINSISVNSDHETYLSADDLRINLWHLEITDRSFNIVDIKPANMEELTEVITAAEFHPHQCNVFVYSSSKGTIRLCDMRSSALCDRHSKFFEEPEDPSSRSFFSEIISSISDVKFSHSGRYMMTRDYLSVKVWDLNMESRPVETHQVHEYLRSKLCSLYENDCIFDKFECCWNGSDSAIMTGSYNNFFRMFDRDTRRDVTLEASRESSKPRASLKPRKVCTGGKRRKDEISVDSLDFNKKILHTAWHPVDNVIAVAATNNLYIFQDKIN
B4: PPP2R3B (protein, UniProt Q9Y5P8 1-575)
chain: MPPGKVLQPVLKMKVDELFLYWLSEASTQRMLQDCLRRIKAPGRDQPTPGDGEQPGAWPTAPLAAPRPSGLEPPGTPGPGPALPLGAASSPRNAPHVRGTRRSAGTRVVQTRKEEPLPPATSQSIPTFYFPRGRPQDSVNVDAVISKIESTFARFPHERATMDDMGLVAKACGCPLYWKGPLFYGAGGERTGSVSVHKFVAMWRKILQNCHDDAAKFVHLLMSPGCNYLVQEDFVPFLQDVVNTHPGLSFLKEASEFHSRYITTVIQRIFYAVNRSWSGRITCAELRRSSFLQNVALLEEEADINQLTEFFSYEHFYVIYCKFWELDTDHDLLIDADDLARHNDHALSTKMIDRIFSGAVTRGRKVQKEGKISYADFVWFLISEEDKKTPTSIEYWFRCMDLDGDGALSMFELEYFYEEQCRRLDSMAIEALPFQDCLCQMLDLVKPRTEGKITLQDLKRCKLANVFFDTFFNIEKYLDHEQKEQISLLRDGDSGGPELSDWEKYAAEEYDILVAEETAGEPWEDGFEAELSPVEQKLSALRSPLAQRPFFEAPSPLGAVDLYEYACGDEDLEPL
B5: STRN (protein, UniProt O43815 1-780)
chain: MDEQAGPGVFFSNNHPGAGGAKGLGPLAEAAAAGDGAAAAGAARAQYSLPGILHFLQHEWARFEVERAQWEVERAELQAQIAFLQGERKGQENLKKDLVRRIKMLEYALKQERAKYHKLKYGTELNQGDMKPPSYDSDEGNETEVQPQQNSQLMWKQGRQLLRQYLQEVGYTDTILDVKSKRVRALLGFSSDVTDREDDKNQDSVVNGTEAEVKETAMIAKSELTDSASVLDNFKFLESAAADFSDEDEDDDVDGREKSVIDTSTIVRKKALPDSGEDRDTKEALKEFDFLVTSEEGDNESRSAGDGTDWEKEDQCLMPEAWNVDQGVITKLKEQYKKERKGKKGVKRPNRSKLQDMLANLRDVDELPSLQPSVGSPSRPSSSRLPEHEINRADEVEALTFPPSSGKSFIMGADEALESELGLGELAGLTVANEADSLTYDIANNKDALRKTWNPKFTLRSHFDGIRALAFHPIEPVLITASEDHTLKMWNLQKTAPAKKSTSLDVEPIYTFRAHKGPVLCVVMSSNGEQCYSGGTDGLIQGWNTTNPNIDPYDSYDPSVLRGPLLGHTDAVWGLAYSAAHQRLLSCSADGTLRLWNTTEVAPALSVFNDTKELGIPASVDLVSSDPSHMVASFSKGYTSIFNMETQQRILTLESNVDTTANSSCQINRVISHPTLPISITAHEDRHIKFYDNNTGKLIHSMVAHLEAVTSLAVDPNGLYLMSGSHDCSIRLWNLESKTCIQEFTAHRKKFEESIHDVAFHPSKCYIASAGADALAKVFV
B6: STRN4 (protein, UniProt Q9NRL3 1-753)
chain: MMEERAAAAVAAAASSCRPLGSGAGPGPTGAAPVSAPAPGPGPAGKGGGGGGSPGPTAGPEPLSLPGILHFIQHEWARFEAEKARWEAERAELQAQVAFLQGERKGQENLKTDLVRRIKMLEYALKQERAKYHKLKFGTDLNQGEKKADVSEQVSNGPVESVTLENSPLVWKEGRQLLRQYLEEVGYTDTILDMRSKRVRSLLGRSLELNGAVEPSEGAPRAPPGPAGLSGGESLLVKQIEEQIKRNAAGKDGKERLGGSVLGQIPFLQNCEDEDSDEDDELDSVQHKKQRVKLPSKALVPEMEDEDEEDDSEDAINEFDFLGSGEDGEGAPDPRRCTVDGSPHELESRRVKLQGILADLRDVDGLPPKVTGPPPGTPQPRPHEDVFIMDTIGGGEVSLGDLADLTVTNDNDLSCDLSDSKDAFKKTWNPKFTLRSHYDGIRSLAFHHSQSALLTASEDGTLKLWNLQKAVTAKKNAALDVEPIHAFRAHRGPVLAVAMGSNSEYCYSGGADACIHSWKIPDLSMDPYDGYDPSVLSHVLEGHGDAVWGLAFSPTSQRLASCSADGTVRIWDPSSSSPACLCTFPTASEHGVPTSVAFTSTEPAHIVASFRSGDTVLYDMEVGSALLTLESRGSSGPTQINQVVSHPNQPLTITAHDDRGIRFLDNRTGKPVHSMVAHLDAVTCLAVDPNGAFLMSGSHDCSLRLWSLDNKTCVQEITAHRKKHEEAIHAVACHPSKALIASAGADALAKVFV
B7: MOB4 (protein, UniProt Q9Y3A3 1-225)
chain: MVMAEGTAVLRRNRPGTKAQDFYNWPDESFDEMDSTLAVQQYIQQNIRADCSNIDKILEPPEGQDEGVWKYEHLRQFCLELNGLAVKLQSECHPDTCTQMTATEQWIFLCAAHKTPKECPAIDYTRHTLDGAACLLNSNKYFPSRVSIKESSVAKLGSVCRRIYRIFSHAYFHHRQIFDEYENETFLCHRFTKFVMKYNLMSKDNLIVPILEEEVQNSVSGESEA
B8: WAVE3 (protein, UniProt Q9UPY6 1-502)
chain: MPLVKRNIEPRHLCRGALPEGITSELECVTNSTLAAIIRQLSSLSKHAEDIFGELFNEANNFYIRANSLQDRIDRLAVKVTQLDSTVEEVSLQDINMKKAFKSSTVQDQQVVSKNSIPNPVADIYNQSDKPPPLNILTPYRDDKKDGLKFYTDPSYFFDLWKEKMLQDTEDKRKEKRRQKEQKRIDGTTREVKKVRKARNRRQEWNMMAYDKELRPDNRLSQSVYHGASSEGSLSPDTRSHASDVTDYSYPATPNHSLHPQPVTPSYAAGDVPPHGPASQAAEHEYRPPSASARHMALNRPQQPPPPPPPQAPEGSQASAPMAPADYGMLPAQIIEYYNPSGPPPPPPPPVIPSAQTAFVSPLQMPMQPPFPASASSTHAAPPHPPSTGLLVTAPPPPGPPPPPPGPPGPGSSLSSSPMHGPPVAEAKRQEPAQPPISDARSDLLAAIRMGIQLKKVQEQREQEAKREPVGNDVATILSRRIAVEYSDSDDDSEFDENDWSD

The chains behind the UniProt entries cited, without tags or fusion partners.
UniProt P30153: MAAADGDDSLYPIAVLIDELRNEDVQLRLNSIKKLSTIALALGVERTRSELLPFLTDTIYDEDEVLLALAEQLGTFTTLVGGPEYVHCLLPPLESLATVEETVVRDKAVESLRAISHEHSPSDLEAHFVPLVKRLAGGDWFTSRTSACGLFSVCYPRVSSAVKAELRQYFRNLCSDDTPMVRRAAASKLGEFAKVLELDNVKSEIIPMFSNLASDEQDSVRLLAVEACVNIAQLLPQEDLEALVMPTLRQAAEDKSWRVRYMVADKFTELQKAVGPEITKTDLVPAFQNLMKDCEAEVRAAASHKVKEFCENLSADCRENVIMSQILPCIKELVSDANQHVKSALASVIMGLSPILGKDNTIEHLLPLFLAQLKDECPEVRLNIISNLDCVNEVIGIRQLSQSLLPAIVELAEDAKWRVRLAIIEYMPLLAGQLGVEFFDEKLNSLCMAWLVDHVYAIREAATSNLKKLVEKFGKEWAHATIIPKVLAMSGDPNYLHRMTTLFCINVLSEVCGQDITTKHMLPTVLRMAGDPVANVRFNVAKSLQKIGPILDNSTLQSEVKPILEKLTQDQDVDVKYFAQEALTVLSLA

Each binder was assayed against FLAG-GFP PPP2R1A, P30153 (assay: affinity purification with mass spectrometry; Tandem affinity purification (FLAG then GFP) of FLAG-GFP PPP2R1A from stable MCF10A and MDA-MB-231 cells; XB-NP40 lysis buffer, 4 °C; FLAG-GFP as control). Conditions: remark: other sources report otherwise.
With B1 the binding was “binds”. With B2 the binding was “binds”.

The binders below were run against FLAG-GFP PPP2R1A (UniProt P30153) in the same assay as above. Conditions: not given.
For B3, the binding was “binds”. In the case of B4, the binding is reported as “binds”. With B5 the binding was “binds”. For B6, the binding was “binds”. With B7 the binding was “binds”. B8 was tested, and the binding was “no binding”.

Each binder was assayed against FLAG-GFP PPP2R1A (UniProt P30153) (assay: affinity purification with mass spectrometry + co-IP; Sequential FLAG then PC (Protein C matrix, EGTA elution) purification from MCF10A cells stably expressing FLAG-GFP PPP2R1A and PC-HA BRK1; mass spectrometry, silver stain and western blots). Conditions: not given.
For B5, the binding was “binds”.
